The nature of this experiment: qHTS Assay to Find Inhibitors of Chronic Active B-Cell Receptor Signaling. To be noted: ABC-DLBCL IkBa-CBG/CBR reporter, luminescence ratio (green luciferase fused to IkBa over red control in TMD8 lymphoma cells), 4 h. The method in brief: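 Cell line TMD8 (human ABC DLBCL), stably expressing tet-inducible CBG68-IkBa fusion and CBR; IMDM/0.5% FBS; cpd up to 46 uM; dox induction, 4 h, 37C/5% CO2; dual luminescence; green/red ratio; MG132 control.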

[1] abbreviates: measured here: CBR red luminescence, cell number.
Where [2] appears, read: measured here: IkBa-CBG green luminescence.

The other results are listed elsewhere or left out. Further columns of the screen follow, without active or inactive calls. Most of these compounds were active or inconclusive in the main read-out, so they are no random draw. Potencies come from curve fits of mixed quality, noted in brackets.

Broadly, the AC50 is the concentration at which the activity in the assay is half-maximal. For the compound `COCCN1C(=O)c2ccccc2C(C(=O)Nc2ccc3c(c2)OCCO3)C1c1ccc(F)cc1` (configuration not stated), under setting [1], the AC50 is 0.631 µM [rising, full curve].
Same read-out and setting: in the case of `COc1ccc2c(c1)[C@H]1[C@H](CO2)[C@H](c2ccccc2)[C@]2(C)C(=O)Nc3ccc(F)cc3C(=O)N12` it was 6.51 µM [falling, partial curve].
The same measure, in the same setting: as for `CCOC(=O)C1=NN(c2ccccc2)C(=O)/C1=C\c1ccc(N(C)C)cc1`, the figure is 32.6 µM [falling, single point]; as for `NS(=O)(=O)c1ccc(NC(=O)c2ccc3c(c2)OCO3)cc1`, 5.01 µM [falling, full curve, poor fit]; as for `CCN(CCCNC(=O)CNC(=O)Cn1cnc2ccccc2c1=O)c1ccccc1`, 6.51 µM [rising, single point].
As for `O=C(Nc1nc2ccc(Cl)cc2s1)[C@@H]1CCCN1C(=O)c1cccs1`, the AC50 reads like this: under setting [1], 20.6 µM [falling, single point]; under setting [2], 16.4 µM [rising, partial curve, poor fit].
With `O=C(NCC1CCCO1)c1cc(-c2ccccc2F)no1` (configuration not stated), the AC50 under setting [1] was 11.2 µM [falling, partial curve].
The same measure, in the same setting: in the case of `CCOC(=O)CSc1c(-c2cccs2)[nH]c2ccccc12` it was 29.1 µM [falling, single point].
On the same count and under the same terms, as for `CCC1CCCCN1C(=O)COC(=O)c1cc2ccccc2cc1O` (configuration not stated), the figure is 35.5 µM [falling, single point]; as for `CC(C)C[C@H](NC(=O)c1nc[nH]c1C(=O)NCc1ccc(CNC(=O)OC(C)(C)C)cc1)C(=O)OC(C)(C)C`, 2 µM [rising, full curve, poor fit]; as for `COc1cc(OC)cc(-c2cc3ccc(F)cc3cn2)c1`, 23.1 µM [falling, single point].
On the same count and under the same terms, in the case of `Cc1cc2c3nonc3ccc2n1-c1ccccc1` it was 6.31 µM [rising, partial curve, poor fit]; in that of `COc1ccc(OC)c(NC(=O)CSC2=C(C#N)C(c3ccco3)C3=C(CCCC3=O)N2)c1` (configuration not stated), 14.1 µM [falling, partial curve].
Turning to `O=C(COC(=O)Cc1n[nH]c(=O)c2ccccc12)Nc1ccc(Cl)cn1`, the AC50 under setting [1] was 2.06 µM [falling, partial curve, poor fit].
Same read-out and setting: in the case of `COC(=O)c1c(NC(=O)/C=C/C(=O)O)sc(Cc2ccccc2)c1C` it was 14.6 µM [falling, partial curve, poor fit].
The same measure, in the same setting: in the case of `CC(C)Sc1nc(N2CCOCC2)c2c(c1C#N)CC(C)(C)SC2` it was 0.562 µM [rising, full curve, poor fit]; in that of `COc1ccc([N+](=O)[O-])cc1C1NN=C(c2cccc3ccccc23)S1` (configuration not stated), 10.3 µM [rising, partial curve]; in that of `O=C(NCCc1ccccc1)C1CC1`, 0.794 µM [rising, full curve, poor fit].
As for `CCOC(=O)c1c(C)n(C)c2ccc(OC)c(NC(=O)CN3CCC4(CC3)OCCO4)c12`, the AC50 runs as follows: under setting [1], 11.2 µM [rising, partial curve]; under setting [2], 11.2 µM [falling, partial curve].
Consider `Cc1noc(C)c1C(=O)OCC(=O)N(C)C1CCS(=O)(=O)C1` (configuration not stated), for which the AC50 under setting [1] is 8.91 µM [falling, partial curve, poor fit].
With `Cc1oc(-c2cccc(Br)c2)[n+]([O-])c1C`, the AC50 under setting [1] was 20 µM [falling, single point].
On the same count and under the same terms, in the case of `COc1ccc(N/N=C(/C)c2cnnc(-c3ccccc3)n2)cc1` it was 25.9 µM [rising, single point].
On the same count and under the same terms, in the case of `N#CCc1ccc(NC(=O)Nc2cccc3ccccc23)cc1` it was 20 µM [falling, partial curve, poor fit].
As to `C/C(CC(=O)Nc1ccc(Cl)c(C(F)(F)F)c1)=N\NC(=O)c1cccc(O)c1`, the AC50 under setting [1] is 3.26 µM [falling, full curve].
Take `Cc1cccc(-n2ncc3c(N)ncnc32)c1`: under setting [1], the AC50 was 20 µM [falling, partial curve].
Same read-out and setting: in the case of `CCOc1ccc(S(=O)(=O)N2CCCCC2)cc1NC(=O)C1CSC2(C)CCC(=O)N12` (configuration not stated) it was 4.11 µM [rising, partial curve].
For `COc1cccc(Nc2nnc(SCC(=O)N3CCOCC3)s2)c1`, the AC50 under setting [1] was 8.91 µM [falling, partial curve].
Same read-out and setting: as for `COc1cc(/C=N/NC(=O)Nc2ccccc2)ccc1OCCOc1ccccc1C`, the figure is 4.61 µM [rising, partial curve]; as for `CN(C)S(=O)(=O)c1ccc(C(=O)OCC(=O)Nc2cccnc2Cl)cc1`, 20 µM [rising, partial curve, poor fit].
Same read-out and setting: as for `Cc1ccc(SC(c2ccc(C)cc2)C(Cn2cncn2)C(=O)c2ccccc2)cc1` (configuration not stated), the figure is 3.66 µM [falling, single point]; as for `C=CCC[C@H](Cc1ccc(F)cc1)C(=O)OC[C@H](Cc1c[nH]c2ccccc12)NC(=O)[C@@H](CC=C)CC(=O)N(CCO)Cc1ccccc1`, 11.6 µM [falling, partial curve, poor fit].
In the case of `CC1(C)S[C@@H]2[C@H](NC(=O)C(C(=O)O)c3ccccc3)C(=O)N2[C@H]1C(=O)O` (some centres not stated), the AC50 under setting [1] is 0.00517 µM [rising, full curve, poor fit].
Same read-out and setting: as for `CCOC(=O)c1sc(NC(=O)c2ccc(C)s2)cc1C`, the figure is 0.141 µM [falling, full curve, poor fit]; as for `CCn1c(SCC(=O)Nc2nc(-c3ccc(C)cc3)cs2)nnc1-c1ccccc1`, 6.51 µM [rising, single point]; as for `O=C(CN1C(=O)NC2(CCCC2)C1=O)Nc1cccc(C(F)(F)F)c1`, 15.8 µM [rising, single point].
As for `CC(=O)Oc1ccc(-c2nc(-c3cccnc3)no2)cc1`, the AC50 was 4.11 µM [rising, single point] under setting [1] and 7.31 µM [falling, partial curve, poor fit] under setting [2].
On to `COc1cccc2sc(N3CCN(c4nc5ccccc5s4)CC3)nc12`, for which the AC50 under setting [1] was 7.94 µM [rising, partial curve, poor fit].
On to `Cc1ccc(C(C)C)c(OCC(=O)Nn2c(C)nc3ccccc3c2=O)c1`, for which the half-maximal activity concentration (AC50) runs as follows: under setting [1], 20.6 µM [falling, single point]; under setting [2], 32.6 µM [rising, partial curve, poor fit].
Take `c1ccc(CN2CCC(Nc3nc(-c4ccccc4)nc4ccccc34)CC2)cc1`: the AC50 under setting [1] was 25.9 µM [falling, partial curve].
Still for that read-out and setting: in the case of `COc1cccc(/C=C2\Oc3cc(OCC(=O)N4CCCCC4)ccc3C2=O)c1OC` it was 25.1 µM [falling, single point]; in that of `O=C(CCSc1ccccc1)Nc1ccccc1Br`, 22.4 µM [falling, partial curve, poor fit]; in that of `COc1ccc(NC(=O)CSC2=Nc3ccccc3C3=NC(CC(=O)NCc4ccco4)C(=O)N23)cc1` (configuration not stated), 28.2 µM [falling, partial curve, poor fit].
On the same count and under the same terms, in the case of `CC(=O)NCc1cc(Cl)c2cccnc2c1O` it was 29.1 µM [falling, single point].
The same measure, in the same setting: in the case of `CCN1C(=O)CC(N2CCN(c3ccc(C(=O)c4ccncc4)cc3)CC2)C1=O` (configuration not stated) it was 18.4 µM [falling, partial curve, poor fit].
Regarding `CCNC(=S)NNC(=O)CSc1nc2ccccc2n1C`, under setting [1], the AC50 was 2.51 µM [rising, full curve, poor fit].
The same measure, in the same setting: as for `CC1CC(C)(C)NC(=S)N1CC(=O)NCc1ccc(Cl)cc1` (configuration not stated), the figure is 25.9 µM [falling, single point].
On the same count and under the same terms, as for `O=C(CN1c2cccc3cccc(c23)S1(=O)=O)N1CCN(c2ccccc2)CC1`, the figure is 25.9 µM [rising, single point]; as for `CCCCNc1c(-c2ccc(-c3cccc(Cl)c3)cc2)nc2ccc(Cl)cn12`, 7.31 µM [falling, single point].
Same read-out and setting: as for `CCOC(=O)N1CCN(C(=O)c2cc3c(s2)-c2ccccc2OC3)CC1`, the figure is 11.6 µM [falling, single point]; as for `O=C(O)CCCC(=O)OCCCCc1cccs1`, 11.2 µM [falling, single point].
For `CCNC(=O)NC(=O)COC(=O)CCCSc1nc2ccccc2s1`, the AC50 by setting is: under setting [1], 5.8 µM [falling, partial curve, poor fit]; under setting [2], 0.092 µM [rising, full curve, poor fit].
Turning to `Brc1ccc(CSc2nnc(-c3ccccn3)n2Cc2ccco2)cc1`, the AC50 under setting [1] is 12.6 µM [rising, partial curve].
Regarding `Cc1cc(OCC(=O)N2CCOCC2)cc2oc(=O)c3ccccc3c12`, the half-maximal activity concentration (AC50) under setting [1] was 23.1 µM [rising, single point].
The same measure, in the same setting: as for `CCOC(=O)c1ccccc1NC(=O)COC(=O)c1cc([N+](=O)[O-])ccc1N1CCOCC1`, the figure is 16.4 µM [falling, single point]; as for `COc1cc(NC(=O)CN(c2ccc(C)cc2)S(=O)(=O)c2c(C)nn(C)c2C)cc(OC)c1`, 1.58 µM [falling, full curve, poor fit]; as for `COCCNc1oc(-c2ccccc2Cl)nc1C#N`, 29.1 µM [falling, single point].
On the same count and under the same terms, as for `CCc1[nH]nc2c1C(C(C)C)C(C#N)=C(N)O2` (configuration not stated), the figure is 15.8 µM [falling, partial curve, poor fit].
On the same count and under the same terms, in the case of `CCC(C)(C)n1nnnc1CN1CCSCC1` it was 9.2 µM [rising, partial curve, poor fit]; in that of `COc1ccc(-c2nc3ccccc3n2CCC(C)C)cc1OC`, 18.4 µM [falling, single point].
On to `COc1ccccc1-c1ccc(C(=O)O)o1`, for which the AC50 under setting [1] is 9.2 µM [falling, partial curve].
In the case of `C=CCNC(=O)c1ccc(CSc2nc3ccccc3s2)cc1`, the AC50 under setting [1] is 35.5 µM [falling, single point].
On the same count and under the same terms, in the case of `COC(=O)c1sccc1NC(=O)/C=C/c1ccc(Cl)cc1` it was 0.326 µM [falling, full curve].

Source of the values: PubChem BioAssay AID493014 (National Center for Advancing Translational Sciences (NCATS), 2011).
